Data taken from PubChem BioAssay AID1159506, deposited by NCATS (2015).

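Luminescence from an EWS-FLI1 target-promoter (NR0B1) reporter, set against a CMV-promoter reporter, two days after silencing single genes in TC32 Ewing sarcoma cells. Each siRNA was applied at 20 nM. A z-score of the log NR0B1-over-CMV signal, less the median of siRNAs with the same seed; more negative means a stronger specific loss of the NR0B1 reporter.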

This is part of the screen; most of the strongest results are not listed here. Sequences are the guide (antisense) strand, without overhang.

Sequence,gene,seed-corrected z-score
UCUUGGGUCUGACCUCUGC,JSRP1,0.736
UGAUUUCCCGGAAUGUUCU,MAPK15,0.2308
UAUCAAACCGAGGAUAAGG,LHFPL2,0.02093
AUAUGUACUAAGGGUAUAG,MIPOL1,-0.8143
UAUUGUGUCAGCAAAUUCC,C6orf48,0.9149
CCAGGUGGGAGAAGUAGGU,HBQ1,1.175
UCAGCUAAUAAUUUAUUCU,BET1,0.5118
UUUGGUUUUUGCAUCGCCG,RNASE2,0.5649
UACUUCAAUGCAUAAUUCC,ALDH18A1,0.2334
UCUGAACUCACAAUAGGUG,ANXA2R,-0.1399
UACGGGAAACUGCAAACCC,HIST1H2AA,0.4427
UGAUGAAUGAUCUUUGAGC,MUL1,-0.4873
AAUCCUGAUAAUUGGAGCC,SFTA3,-0.9865
UCUCGCUCCAGUUUUCGGG,CCDC43,0.1015
UCUGCGUAUCUUCUAAUGG,DIS3,0.341
UACGAUUGAAGCAAUAAAG,CMTM4,0.3759
AAAGCGUAAACUGACCCGC,C1orf56,0.5355
UCUCCUUUUCGCCUAGUGG,PMS2P1,0.8065
UCAUGUUACACUUCCGCGG,ITGBL1,0.5451
UUUUCGAUAGUGAUCUAUG,RASA1,0.3157
UCAUACAUCACCGAAUUCC,CACNA1C,0.08874
UGGGUUUCCAGAGAUAUGU,NDUFB4P12,-0.101
UCUUUCUCCAACCAGACGC,LOC646778,-0.1097
UGAGAUGCCUUGUUGAUCG,TMEM192,0.5043
UCCUCUAGAACCUUCCUGC,WNT7B,0.0004314
UGAUGGUGUAGAGGGAAGG,COPZ2,0.0339
UAAAGAUAUAUGUCGUCCC,NRXN1,0.2416
UUCUGUUACUUCACAAGUG,CD47,-0.02081
AUAGUUCUGCGUGAAGCUC,ZNF496,-1.964
UAGUCUACAGGAUCUGCGG,PARD3B,-0.1274
UAGUACAUAUGUCCUGUCC,LINC01085,-0.8455
UACGUUGUGAGGCCGUGCU,COBL,-1.085
UUCGAGACCAACUUCGCCU,PARGP1,0.1479
UACGCUAAUCCAGUCAUAG,BEST2,-0.1545
UAACGGUUCACCUUCCAGC,ADCYAP1R1,-0.3868
UUUCCGGAAAGGAUGUCCC,NDUFS3,-0.2068
UUAUCACUGACGGGUCUGC,NPRL3,0.9827
UUCGUGUCUAGGUGGGUGC,GLIS1,0.2643
UAGGCAUUGAAGACCCUCG,RPS26P40,0.6641
AGUCUAGCAACAUUAUGGG,ABCA13,1.144
UGAGGAUAUAGCGGAACAC,KCTD21,0.7326
UUACGAUCCUCCUCUUUCC,ZC3H13,0.6641
UGCUUGUUCAUCAUGAUAU,RHO,-0.001085
UUCAAUUAAGGUUAUUAGG,TMEM17,0.7605
UCAGAGAAAGUCAGUCUGC,LINC00693,-0.1231
UUCUUAGCAAUCUGUACUG,LIN54,-0.1694
AUUUUUAGCAAUGAAGUAG,GRPR,0.2104

Once more, the final 3:

Sequence,gene,seed-corrected z-score
UCAGAGAAAGUCAGUCUGC,LINC00693,-0.1231
UUCUUAGCAAUCUGUACUG,LIN54,-0.1694
AUUUUUAGCAAUGAAGUAG,GRPR,0.2104